Results deposited as PubChem BioAssay AID504764 (Drosophila RNAi Screening Center, 2011)

- Aim: 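Genes whose knock-down alters Notch-dependent transcription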 (primary screen)
- Cells: Drosophila Kc167 cells
- Knock-down reagent: long dsRNA against Drosophila genes
- Duration: about 5 days (4 days dsRNA, then 24 h after transfection)
- Treatment: transfection of constitutively active membrane-tethered Notch lacking the extracellular domain, read 24 h later
- Measured: 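Light from a Notch-responsive E(spl)m3 luciferase reporter under active Notch, with control-promoter and no-Notch reporter wells to normalise; raw counts from paired wells a and b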
- Direction: induced reporter light, run 1, well a and induced reporter light, run 1, well b: higher = more light from the Notch target reporter with active Notch; control promoter light, run 1, well a and control promoter light, run 1, well b: higher = more light from the viral control promoter (cell number, transfection, viability); uninduced reporter light, run 1, well a: higher = more light from the Notch target reporter without active Notch
- Call rule: 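Wells with low control signal or poorly matching duplicates excluded; duplicates averaged; per source plate, z beyond ±2 for induced/control log2 ratio or beyond ±1.8 for induced/uninduced marks a hit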
- Meaning of the calls: active = modifier hit (raised or lowered Notch signal); inactive = not a hit
In all, the deposit lists about 22,000 reagents; below is an unselected part of those with a known target gene and a result. In the full data, 403 (1.9%) are marked active. 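Unnormalised raw counts per well; ratio z-scores behind the hit calls and whether each hit raises or lowers signal are not deposited.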 A number with no mark means an inactive call. A plus sign joins genes that one reagent is predicted to hit. Not given: the amount of reagent.

| target gene | amplicon | induced reporter light, run 1, well a | induced reporter light, run 1, well b | control promoter light, run 1, well a | control promoter light, run 1, well b | uninduced reporter light, run 1, well a |
| --- | --- | --- | --- | --- | --- | --- |
| CG7857 | DRSC10925 | 1.87e5 | 1.95e5 | 2.06e5 | 2.33e5 | 8315 |
| CG8841 | DRSC07286 | 1.54e5 | 1.61e5 | 1.56e5 | 1.77e5 | 14965 |
| CG7453 | DRSC20046 | 1.05e5 | 1.19e5 | 1.32e5 | 1.97e5 | 10870 |
| CG5181 | DRSC02825 | 1.25e5 | 1.43e5 | 1.80e5 | 1.74e5 | 13285 |
| sut3 | DRSC07702 | 2.08e5 | 1.86e5 | 1.97e5 | 1.62e5 | 14675 |
| alphaKap4 | DRSC09823 | 1.81e5 | 2.07e5 | 3.16e5 | 2.61e5 | 7255 |
| CG17140 + CG17139 | DRSC02585 | 1.39e5 | 1.97e5 | 1.01e5 | 1.17e5 | 19240 |
| CG17140 + CG17139 | DRSC02586 | 1.16e5 | 1.45e5 | 73445 | 89345 | 17065 |
| sni | DRSC17770 | 1.87e5 | 1.58e5 | 1.74e5 | 1.90e5 | 11530 |
| Pex2 | DRSC10770 | 1.24e5 | 1.04e5 | 78685 | 43660 | 9475 |
| Teh1 | DRSC14544 | 1.36e5 | 1.03e5 | 72210 | 63360 | 10360 |
| CD98hc | DRSC15453 | 76875 | 1.02e5 | 1.01e5 | 76480 | 5960 |
| Lst8 | DRSC18262 | 1.67e5 | 1.65e5 | 2.03e5 | 2.19e5 | 12785 |
| Mms19 | DRSC12188 | 1.35e5 | 1.20e5 | 93385 | 92555 | 9140 |
| Su(var)2-10 | DRSC07721 | 87430 | 82810 | 1.00e5 | 1.17e5 | 7192 |
| CG10628 | DRSC02080 | 37095 | 44645 | 54495 | 45935 | 4095 |
| wdn | DRSC17095 | 1.35e5 | 1.89e5 | 2.88e5 | 2.18e5 | 8815 |
| mab-21 | DRSC18791 | 1.52e5 | 1.86e5 | 3.70e5 | 3.33e5 | 13875 |
| Ance-5 | DRSC04055 | 2.51e5 | 2.52e5 | 2.27e5 | 2.13e5 | 17955 |
| nerfin-1 | DRSC08729 | 1.46e5 | 1.32e5 | 1.97e5 | 2.12e5 | 6705 |
| CG7458 | DRSC11829 | 1.75e5 | 1.47e5 | 93780 | 1.01e5 | 7740 |
| REPTOR-BP | DRSC02683 | 1.35e5 | 1.53e5 | 85950 | 1.13e5 | 23055 |
| Acsf3 | DRSC18146 | 1.76e5 | 1.77e5 | 2.79e5 | 3.58e5 | 13442 |
| OXA1L | DRSC09672 | 68030 | 71520 | 54575 | 16455 | 5278 |
| CG4161 | DRSC01930 | 1.24e5 | 1.45e5 | 1.35e5 | 1.67e5 | 9210 |
| Esp | DRSC16664 | 1.76e5 | 1.36e5 | 1.91e5 | 1.67e5 | 14960 |
| Fbp1 | DRSC11166 | 1.40e5 (active) | 1.50e5 | 1.47e5 | 99120 | 6885 |

In a second layout: 8 of the entries above
{"target gene": "Teh1", "amplicon": "DRSC14544", "induced reporter light, run 1, well a": 1.36e5, "induced reporter light, run 1, well b": 1.03e5, "control promoter light, run 1, well a": 72210, "control promoter light, run 1, well b": 63360, "uninduced reporter light, run 1, well a": 10360}
{"target gene": "CD98hc", "amplicon": "DRSC15453", "induced reporter light, run 1, well a": 76875, "induced reporter light, run 1, well b": 1.02e5, "control promoter light, run 1, well a": 1.01e5, "control promoter light, run 1, well b": 76480, "uninduced reporter light, run 1, well a": 5960}
{"target gene": "Lst8", "amplicon": "DRSC18262", "induced reporter light, run 1, well a": 1.67e5, "induced reporter light, run 1, well b": 1.65e5, "control promoter light, run 1, well a": 2.03e5, "control promoter light, run 1, well b": 2.19e5, "uninduced reporter light, run 1, well a": 12785}
{"target gene": "Mms19", "amplicon": "DRSC12188", "induced reporter light, run 1, well a": 1.35e5, "induced reporter light, run 1, well b": 1.20e5, "control promoter light, run 1, well a": 93385, "control promoter light, run 1, well b": 92555, "uninduced reporter light, run 1, well a": 9140}
{"target gene": "Su(var)2-10", "amplicon": "DRSC07721", "induced reporter light, run 1, well a": 87430, "induced reporter light, run 1, well b": 82810, "control promoter light, run 1, well a": 1.00e5, "control promoter light, run 1, well b": 1.17e5, "uninduced reporter light, run 1, well a": 7192}
{"target gene": "CG10628", "amplicon": "DRSC02080", "induced reporter light, run 1, well a": 37095, "induced reporter light, run 1, well b": 44645, "control promoter light, run 1, well a": 54495, "control promoter light, run 1, well b": 45935, "uninduced reporter light, run 1, well a": 4095}
{"target gene": "wdn", "amplicon": "DRSC17095", "induced reporter light, run 1, well a": 1.35e5, "induced reporter light, run 1, well b": 1.89e5, "control promoter light, run 1, well a": 2.88e5, "control promoter light, run 1, well b": 2.18e5, "uninduced reporter light, run 1, well a": 8815}
{"target gene": "mab-21", "amplicon": "DRSC18791", "induced reporter light, run 1, well a": 1.52e5, "induced reporter light, run 1, well b": 1.86e5, "control promoter light, run 1, well a": 3.70e5, "control promoter light, run 1, well b": 3.33e5, "uninduced reporter light, run 1, well a": 13875}

The list goes on.
| target gene | amplicon | induced reporter light, run 1, well a | induced reporter light, run 1, well b | control promoter light, run 1, well a | control promoter light, run 1, well b | uninduced reporter light, run 1, well a |
| --- | --- | --- | --- | --- | --- | --- |
| Vm32E | DRSC03474 | 97150 | 1.59e5 | 55815 | 73895 | 13815 |
| CG10073 | DRSC05961 | 40070 | 18270 | 31800 | 34555 | 2645 |
| HipHop | DRSC10734 | 95115 | 1.31e5 | 76970 | 81070 | 7615 |
| stnB + stnA | DRSC20969 | 2.63e5 | 2.53e5 | 3.50e5 | 3.72e5 | 12785 |
| stnB + stnA | DRSC21112 | 74570 | 77965 | 1.05e5 | 91385 | 7535 |
| stnB + stnA | DRSC21113 | 1.02e5 | 86550 | 1.00e5 | 1.26e5 | 9525 |
| Hmu | DRSC16705 | 91720 | 1.19e5 | 1.97e5 | 1.54e5 | 8615 |
| CG42709 | DRSC10277 | 1.26e5 | 83580 | 64995 | 45350 | 7995 |
| CG14369 | DRSC14831 | 2.41e5 | 2.31e5 | 2.19e5 | 2.27e5 | 18055 |
| Sytalpha | DRSC02869 | 1.06e5 | 1.32e5 | 1.45e5 | 1.47e5 | 9850 |
| MFS10 | DRSC19888 | 1.76e5 | 1.89e5 | 2.56e5 | 2.04e5 | 11125 |
| Lerp | DRSC14750 | 58375 | 59645 | 44140 | 46205 | 9792 |
| Lerp | DRSC14751 | 1.67e5 | 1.55e5 | 2.76e5 | 2.28e5 | 15855 |
| Lerp | DRSC16030 | 1.69e5 | 1.51e5 | 2.19e5 | 1.91e5 | 15425 |
| Lerp | DRSC16031 | 1.67e5 | 1.30e5 | 1.73e5 | 1.69e5 | 11878 |
| CG3662 | DRSC00626 | 1.95e5 | 1.91e5 | 1.71e5 | 2.11e5 | 18160 |
| CG11768 | DRSC14377 | 19325 | 18045 | 16445 | 11600 | 3792 |
| CG42634 + CG42635 | DRSC02450 | 1.21e5 | 1.21e5 | 1.23e5 | 1.43e5 | 9830 |
| crp | DRSC03515 | 87535 | 95775 | 98865 | 1.06e5 | 7780 |
| CG5478 | DRSC15814 | 2.17e5 | 2.49e5 | 2.10e5 | 2.15e5 | 17875 |
| dib | DRSC08711 | 1.04e5 | 1.14e5 | 80245 | 29690 | 11410 |
| CG13137 | DRSC02234 | 1.26e5 | 1.21e5 | 71185 | 90855 | 17785 |
| to | DRSC17086 | 1.58e5 | 1.52e5 | 2.27e5 | 2.31e5 | 14635 |
